The campaign covered roughly 360,000 compounds. About 9,100 (2.5%) were called active. The shares of active, inactive and inconclusive entries below differ from those in the screen. Cut-off read from the data, not from the text of the source: active = max response below about -50%; inconclusive = no clear call, values can overlap the other calls; inactive = above that.
Biological target: D(3) dopamine receptor (Homo sapiens) (UniProt P35462)
Assay: qHTS of D3 Dopamine Receptor Antagonist: qHTS
Conditions: D3R cells, DiscoveRx beta-arrestin luminescence, antagonist mode; stronger effect = lower value
Method in brief: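 Cells plated overnight at 1500 cells/well, then exposed to library compounds with dopamine controls for 90 minutes at 37 degrees C. DiscoveRx reagent added for 30–60 minutes at room temperature; luminescence read, quantitative HTS format.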
% is set by controls: 0 for no effect and ±100 for the full control effect.

Amino acid sequences for entries named in this document (tags omitted).
UniProt P35462, whole entry, looked up: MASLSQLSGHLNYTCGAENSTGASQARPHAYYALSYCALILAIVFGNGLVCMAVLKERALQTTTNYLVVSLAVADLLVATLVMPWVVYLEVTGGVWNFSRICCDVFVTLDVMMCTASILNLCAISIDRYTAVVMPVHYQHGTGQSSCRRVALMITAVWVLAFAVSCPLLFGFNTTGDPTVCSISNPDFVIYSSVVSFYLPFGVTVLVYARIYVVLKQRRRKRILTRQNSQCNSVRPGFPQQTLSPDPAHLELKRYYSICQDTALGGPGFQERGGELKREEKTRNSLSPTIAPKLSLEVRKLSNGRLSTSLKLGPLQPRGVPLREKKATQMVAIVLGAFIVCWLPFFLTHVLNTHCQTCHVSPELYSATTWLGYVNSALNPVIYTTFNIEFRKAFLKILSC

Row | Structure (SMILES) | max response, negative = inhibition
1 | CCN(Cc1cc(=O)n2cc(Cl)c(C)c(Cl)c2n1)Cc1nc2ccccc2c(=O)[nH]1 | inactive: 13.3%
2 | CC1(C(=O)N2Cc3ccccc3C2)CCN1C(=O)C1(c2ccc(Cl)cc2)CC1 (stereo unspecified) | inconclusive: -31.3%
3 | O=C(CSc1nnc(-c2ccc(O)cc2)n1Cc1ccco1)N1CCc2ccccc2C1 | inconclusive: -34.2%
4 | COc1cc(CN2CCC(C(=O)N3CCN(c4ccccc4F)CC3)CC2)cc(OC)c1OC | active: -52.9%
5 | COc1ccc(NC(=O)c2cc(S(=O)(=O)N3CCCCC3)ccc2C)cc1S(=O)(=O)N1CCOCC1 | active: -52%
6 | CCOC(=O)C1CCCN(Cc2sccc2C)C1 (stereo unspecified) | inconclusive: -41.7%
7 | CC1=C(C(=O)N(C)C)CC(CC(=O)NCCCCc2ccccc2)C(=O)N1Cc1ccc(C(C)(C)C)cc1 (stereo unspecified) | inactive: 2.32%
8 | COc1ccc(CNC(=O)COc2ccc(F)cc2)cc1 | inactive: 2.51%
9 | CCCCCCSC1=C(C#N)C(=O)NC2(CCCCC2)S1 | inconclusive: -34.1%
10 | CCOC(=O)C1CCN(c2cc3c(cc2NC(=O)c2ccccc2OCC)n(C)c(=O)n3C)CC1 | inactive: 24.6%
11 | COc1cc(C(C)=O)ccc1OCC(O)CN1CCN(c2ccccc2)CC1 (stereo unspecified) | inconclusive: -30.6%
12 | CC1(C)CC(=O)C=C(NNC(=O)c2ccccc2)C1 | inconclusive: -33.4%
13 | CN1CCN(c2ccc(NC(=O)CSc3ccccc3)cc2F)CC1 | inconclusive: -35.8%
14 | FC(F)Sc1ccc(-n2cc(-c3ccccc3)[n+]3c2CCC3)cc1 | inactive: -16.4%
15 | S=C(c1ccc(Cl)cc1)N1CCN(Cc2ccccc2)CC1 | active: -68.9%
16 | Cn1c(=O)c2c(SCC(=O)N3CCN(c4ccccc4)CC3)nc(C3CC3)nc2n(C)c1=O | inactive: 15.8%
17 | CC(C)c1nc(SCC(=O)c2c[nH]c3ccccc23)n[nH]1 | active: -60.6%
18 | CC(C)COc1cccc(C(=O)NC(=S)Nc2cccc(NC(=O)c3ccccc3Cl)c2)c1 | inconclusive: -40.3%
19 | O=C(CCn1c(=O)oc2ccccc21)NCc1ccc2c(c1)OCO2 | inconclusive: -35.2%

Row | Structure (SMILES) | max response, negative = inhibition
20 | O=C(CSc1nc(O)c(Cc2ccccc2F)c(=O)[nH]1)N1CCCCCC1 | inconclusive: -40.1%
21 | CC1CCN(CC(=O)Nc2cccc(Cl)c2)CC1 | inconclusive: -41.1%
22 | COc1cc(/C=C/C(=O)OCc2c(C)noc2C)ccc1OC(F)F | inconclusive: -35.2%
23 | CCCCC(=O)Nc1ccc(N2CCN(S(C)(=O)=O)CC2)cc1 | inconclusive: -36.5%
24 | O=C(O)Cn1c2ccccc2c2n[nH]c(=S)nc21 | inactive: -11.5%
25 | COc1cc(OC)c(Cl)cc1N | inconclusive: -46.9%
26 | CCCCOc1ccc(-c2cc(C(=O)NNC(=S)NCC)c3ccccc3n2)cc1 | inactive: -17.9%
27 | Cc1ccccc1CN(C)CC(=O)Nc1cccc(S(=O)(=O)N(C)c2ccccc2)c1 | inconclusive: -33.9%
28 | COc1cc(C(Nc2ccc3c(c2)OCO3)C(=O)NC2CCCCC2)cc(OC)c1OC (stereo unspecified) | inconclusive: -31.2%
29 | COc1ccc(-c2oc(NC(=O)CSc3ncn[nH]3)c(C#N)c2-c2ccc(OC)cc2)cc1 | inconclusive: -38.5%
30 | COC1=C(Br)C(=O)c2ncccc2C1=O | inconclusive: -44.3%
31 | NC(=S)N/N=C/c1ccccc1OCc1cccc(Cl)c1 | inconclusive: -46.3%
32 | CCC/C=N/NC(=O)c1[nH]c2c([N+](=O)[O-])cccc2c1C | inconclusive: -43.5%
33 | CCn1c(SCC(=O)O)nnc1-c1ccc2[nH]c(C)c(C)c2c1 | inactive: -17.9%
34 | COC(=O)c1ccc(COC(=O)CCc2nc(-c3ccccc3)c(-c3ccccc3)o2)cc1 | inactive: 9.68%
35 | CCN(CC)CCOC(=O)c1cc(Cl)c(N)cc1OC | active: -58%
36 | CCOc1ccc(NC(=O)OCCN2CCN(CCc3ccccc3)C(C)C2)cc1 (stereo unspecified) | inconclusive: -40.5%
37 | CC(C(=O)NCc1cccs1)N1CCN(S(=O)(=O)c2ccc3c(c2)OCCCO3)CC1 (stereo unspecified) | inactive: -15.2%
38 | CCc1nn(CC(=O)NCCCN(Cc2ccccc2)C(C)C)c(=O)c2cc3sccc3n12 | inconclusive: -42.7%

Row | Structure (SMILES) | max response, negative = inhibition
39 | COc1ccc(C(c2nnnn2Cc2ccccc2)N2CCN(c3nc4ccccc4s3)CC2)cc1OC (stereo unspecified) | inconclusive: -41.9%
40 | O=C(NC(c1ccc(-c2ccccc2)cc1)c1cnccn1)C1CCN(Cc2cccs2)CC1 (stereo unspecified) | inactive: 7.52%
41 | CCOc1ccccc1N1CCN(CC(=O)NC(C)c2ccccc2)CC1 (stereo unspecified) | active: -89.1%
42 | C=CCn1c(CSc2nc3ccccc3s2)nnc1SCC(=O)OCC | inactive: 4.9%
43 | Cc1ccc(C(=O)Sc2cccccc2=O)cc1 | active: -94.1%
44 | O=C(NCc1ccccc1CN1CCCC1)c1ccc(S(=O)(=O)Nc2ccccc2F)cc1 | inactive: -5.74%
45 | CCCNC(=O)c1cc2c(c(-c3cccc(-c4ccc(C#N)cc4)c3)n1)[C@@H](CCO)N(C(=O)CC)C2 | inconclusive: -31.2%
46 | O=C(COC(=O)c1ccccc1Oc1ccccc1)NCc1ccco1 | inconclusive: -32.3%
47 | Cc1ccc(S(=O)(=O)CCc2nc3ccccc3s2)cc1 | inconclusive: -42.2%
48 | O=C(NC1CCCc2c1cnn2-c1ccc(F)cc1F)c1ccccn1 (stereo unspecified) | inactive: 3.42%
49 | O=C(CN1CCN(S(=O)(=O)c2ccc(Br)cc2)CC1)Nc1ccc(F)cc1F | active: -50.9%
50 | Cc1cc(C)nc(SCc2csc(-c3ccccc3)n2)n1 | inconclusive: -32.1%
51 | CCCCN(CC)CCCNC(=O)c1csc2c1CCCCC2 | inconclusive: -34.9%
52 | CCOC(=O)C1CCN(CCC(=O)Nc2ccccc2Cl)CC1 | inactive: -20.7%
53 | CC1CN(c2ccc(C(F)(F)F)cc2[N+](=O)[O-])CCN1S(C)(=O)=O (stereo unspecified) | inconclusive: -48.2%
54 | CC(C)C[C@H](NC(=O)c1nc[nH]c1C(=O)N1CCNCC1)C(=O)OC(C)(C)C | active: -53.9%
55 | O=[N+]([O-])c1ccc(S(=O)(=O)Nc2cccc(-c3ccc(N4CCOCC4)nn3)c2)cc1 | inactive: -14%
56 | O=C(Nc1cc(-c2ccccc2)nn1-c1ccccc1)c1ccccc1F | inactive: 36.3%

Random excerpt: 3 entries already listed.
Row | Structure (SMILES) | max response, negative = inhibition
51 | CCCCN(CC)CCCNC(=O)c1csc2c1CCCCC2 | inconclusive: -34.9%
50 | Cc1cc(C)nc(SCc2csc(-c3ccccc3)n2)n1 | inconclusive: -32.1%
39 | COc1ccc(C(c2nnnn2Cc2ccccc2)N2CCN(c3nc4ccccc4s3)CC2)cc1OC (stereo unspecified) | inconclusive: -41.9%
